From US4743677A (Toyo Jozo Co., Ltd., priority 1985, dated 1988)
Some peptides are written in HELM: one residue between dots, names in brackets for other building blocks, links after the first $.

Experiment: general procedure: hybrid (solid and solution phase) peptide synthesis; MBHA resin (Applied Biosystems; amino groups 0.61 mmole/g); DCC; DCC/HOBt double coupling for Asn and Arg; azide fragment coupling
Conditions: purification step, on 0.0165 mmole protected polypeptide

“PEPTIDE1{[Mpa].D.T.A.T.C.V.T.H.R.L.A.G.L.L.S.R.S.G.G.V.V.K.N.N.F.V.P.T.N.V.G.S.K.A.F.[am]}$PEPTIDE1,PEPTIDE1,1:R3-6:R3$$$V2.0” gave a step yield of 40.0%.
